Results reported in publication PMC4278855.
No constants are given. Whether binding was seen depends on the method and setting. In cells and extracts the contact can be indirect. Here binding means that the protein was enriched with, or labelled near, the bait; the list need not be complete. Where a sequence is shown, tags or fusion partners need not be part of it.

Chains of the proteins cited; added tags and fusions are not shown.
UniProt P30153: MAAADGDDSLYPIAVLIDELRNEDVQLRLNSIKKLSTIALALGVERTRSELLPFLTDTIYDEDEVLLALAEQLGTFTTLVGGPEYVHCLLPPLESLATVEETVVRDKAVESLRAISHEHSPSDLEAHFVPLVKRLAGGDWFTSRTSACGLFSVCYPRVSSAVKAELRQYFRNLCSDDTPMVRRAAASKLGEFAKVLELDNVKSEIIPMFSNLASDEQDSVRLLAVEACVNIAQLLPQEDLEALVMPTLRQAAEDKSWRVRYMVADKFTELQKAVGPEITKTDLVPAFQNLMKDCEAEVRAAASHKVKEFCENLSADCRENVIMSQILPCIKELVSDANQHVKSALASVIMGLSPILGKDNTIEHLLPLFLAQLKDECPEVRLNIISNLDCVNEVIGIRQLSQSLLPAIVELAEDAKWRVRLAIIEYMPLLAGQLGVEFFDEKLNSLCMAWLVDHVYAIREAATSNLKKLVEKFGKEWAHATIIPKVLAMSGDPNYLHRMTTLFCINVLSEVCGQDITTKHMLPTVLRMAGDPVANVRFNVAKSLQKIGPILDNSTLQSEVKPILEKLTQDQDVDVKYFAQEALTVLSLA
UniProt P67775: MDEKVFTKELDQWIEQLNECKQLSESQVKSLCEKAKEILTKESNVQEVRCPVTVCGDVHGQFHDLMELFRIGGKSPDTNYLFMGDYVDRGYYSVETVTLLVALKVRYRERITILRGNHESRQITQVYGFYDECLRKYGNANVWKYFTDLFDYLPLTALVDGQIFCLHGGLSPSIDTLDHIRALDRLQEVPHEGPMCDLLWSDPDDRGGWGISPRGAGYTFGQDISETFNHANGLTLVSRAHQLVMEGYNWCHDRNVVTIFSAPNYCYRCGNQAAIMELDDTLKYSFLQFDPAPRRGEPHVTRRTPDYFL
UniProt P62714: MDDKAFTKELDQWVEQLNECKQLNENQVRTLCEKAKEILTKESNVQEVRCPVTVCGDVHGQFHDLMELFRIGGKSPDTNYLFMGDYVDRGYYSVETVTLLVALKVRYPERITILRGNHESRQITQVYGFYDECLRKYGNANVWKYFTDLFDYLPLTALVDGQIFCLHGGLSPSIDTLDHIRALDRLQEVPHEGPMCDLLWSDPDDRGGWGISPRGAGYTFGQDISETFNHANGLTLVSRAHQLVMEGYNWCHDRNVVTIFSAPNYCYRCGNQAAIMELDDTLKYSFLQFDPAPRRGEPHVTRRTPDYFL
UniProt P63151: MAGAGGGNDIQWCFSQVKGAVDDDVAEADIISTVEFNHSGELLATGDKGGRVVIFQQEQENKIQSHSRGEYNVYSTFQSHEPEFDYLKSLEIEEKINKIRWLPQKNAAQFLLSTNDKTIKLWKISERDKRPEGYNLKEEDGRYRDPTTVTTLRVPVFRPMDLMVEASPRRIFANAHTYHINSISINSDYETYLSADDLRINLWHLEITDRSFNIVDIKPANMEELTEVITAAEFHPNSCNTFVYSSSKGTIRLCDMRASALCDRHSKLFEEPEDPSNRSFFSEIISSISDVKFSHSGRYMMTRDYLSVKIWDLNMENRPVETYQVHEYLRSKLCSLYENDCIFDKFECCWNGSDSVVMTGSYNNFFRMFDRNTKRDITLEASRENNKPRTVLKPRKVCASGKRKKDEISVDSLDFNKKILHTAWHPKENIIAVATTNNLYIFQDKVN

Biological target: T1, His-NOSIP (nitric oxide synthase interacting protein) (UniProt Q9Y314)
T1 sequence: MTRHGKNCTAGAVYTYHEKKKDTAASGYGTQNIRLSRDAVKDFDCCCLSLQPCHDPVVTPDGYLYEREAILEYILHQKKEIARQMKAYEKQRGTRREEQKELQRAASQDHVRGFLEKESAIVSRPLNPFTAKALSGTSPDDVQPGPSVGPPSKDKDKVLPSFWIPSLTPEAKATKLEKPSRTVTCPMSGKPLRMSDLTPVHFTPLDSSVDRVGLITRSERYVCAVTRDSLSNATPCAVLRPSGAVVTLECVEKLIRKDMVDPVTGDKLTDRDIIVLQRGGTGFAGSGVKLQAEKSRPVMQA
Assay: affinity purification with mass spectrometry; purified His-NOSIP coupled to a HiTrap NHS-activated HP column; total HeLa cell lysate injected; binding buffer 50 mM Tris-HCl pH 7.5, 150 mM NaCl; eluted with 100 mM glycine-HCl pH 2.5; Coomassie bands analysed by mass spectrometry; unloaded control column; only the target purified

binding, binds:
PP2A subunit A isoform PR65-alpha (from UniProt P30153 1-589), PP2A catalytic subunit alpha isoform (from UniProt P67775 1-309) (enzyme), PP2A catalytic subunit beta isoform (from UniProt P62714 1-309) (enzyme), PP2A subunit B isoform B55-alpha (from UniProt P63151 1-447)
